Results are given in words; binding and its absence hold for the method and conditions named. Binding seen in cells or lysates may run through a third protein. These calls come from enrichment with a bait or labelling near it, and not all partners need be listed. One block for each molecule: values may come before it.
Biological target: STAT1-Bio (signal transducers and activators of transcription 1 with a carboxy-terminal biotinylation tag), without activation (human) (UniProt P42224)
Experiment: affinity purification with mass spectrometry; streptavidin bead pull-down of in situ biotinylated STAT1-Bio from HEK 293T whole cell extracts (modified RIPA buffer: 50 mM Tris-HCl pH 7.8, 150 mM NaCl, 1% NP-40, 0.25% sodium deoxycholate, 1 mM EDTA), 1.5 h at 4°C, 3 washes; triple SILAC against GFP-Bio control; cells treated with erythropoietin or left untreated; hits with log2 FC > 1 and p < 0.005

Amino acid sequences for entries named in this document (tags omitted). A change or cut given only in a name is not applied to a line headed by its entry. Residues count along the entry.
UniProt P27824, residues 21-592: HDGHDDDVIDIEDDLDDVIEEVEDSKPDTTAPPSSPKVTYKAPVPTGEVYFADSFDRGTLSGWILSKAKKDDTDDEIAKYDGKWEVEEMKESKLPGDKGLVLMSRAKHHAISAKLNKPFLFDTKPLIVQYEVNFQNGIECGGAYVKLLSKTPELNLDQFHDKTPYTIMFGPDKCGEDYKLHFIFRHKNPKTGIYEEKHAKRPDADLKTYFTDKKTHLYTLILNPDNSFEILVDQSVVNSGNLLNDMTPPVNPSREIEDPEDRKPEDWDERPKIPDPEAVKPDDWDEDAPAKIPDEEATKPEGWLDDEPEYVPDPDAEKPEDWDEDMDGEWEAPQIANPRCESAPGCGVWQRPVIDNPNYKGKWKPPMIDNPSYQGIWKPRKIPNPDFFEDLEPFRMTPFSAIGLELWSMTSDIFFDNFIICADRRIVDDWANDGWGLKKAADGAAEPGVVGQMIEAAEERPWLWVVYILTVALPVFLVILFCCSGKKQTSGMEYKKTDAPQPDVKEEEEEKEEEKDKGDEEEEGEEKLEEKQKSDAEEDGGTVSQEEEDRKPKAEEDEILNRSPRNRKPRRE
UniProt Q04760: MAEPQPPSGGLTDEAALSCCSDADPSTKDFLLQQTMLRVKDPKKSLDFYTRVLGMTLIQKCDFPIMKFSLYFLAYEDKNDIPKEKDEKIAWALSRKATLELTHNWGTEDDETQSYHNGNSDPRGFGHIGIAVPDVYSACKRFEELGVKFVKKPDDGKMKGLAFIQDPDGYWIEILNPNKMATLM
UniProt P61081: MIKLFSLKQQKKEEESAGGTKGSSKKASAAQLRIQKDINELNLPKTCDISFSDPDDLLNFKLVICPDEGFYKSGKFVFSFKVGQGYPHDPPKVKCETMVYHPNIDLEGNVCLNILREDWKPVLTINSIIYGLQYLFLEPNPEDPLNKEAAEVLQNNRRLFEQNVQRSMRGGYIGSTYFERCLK

- binding: binds
Molecule: CANX (from UniProt P27824 21-592)

- binding: binds
Molecule: GLO1 (from UniProt Q04760 1-184)

- binding: binds
Molecule: ubiquitin-conjugating enzyme E2M (from UniProt P61081 1-183)

- binding: binds
B1: electron-transfer-flavoprotein (protein, UniProt P38117 1-255)
chain: MAELRVLVAVKRVIDYAVKIRVKPDRTGVVTDGVKHSMNPFCEIAVEEAVRLKEKKLVKEVIAVSCGPAQCQETIRTALAMGADRGIHVEVPPAEAERLGPLQVARVLAKLAEKEKVDLVLLGKQAIDDDCNQTGQMTAGFLDWPQGTFASQVTLEGDKLKVEREIDGGLETLRLKLPAVVTADLRLNEPRYATLPNIMKAKKKKIEVIKPGDLGVDLTSKLSVISVEDPPQRTAGVKVETTEDLVAKLKEIGRI

- binding: binds
B2: PYGL (protein, UniProt P06737 1-847)
chain: MAKPLTDQEKRRQISIRGIVGVENVAELKKSFNRHLHFTLVKDRNVATTRDYYFALAHTVRDHLVGRWIRTQQHYYDKCPKRVYYLSLEFYMGRTLQNTMINLGLQNACDEAIYQLGLDIEELEEIEEDAGLGNGGLGRLAACFLDSMATLGLAAYGYGIRYEYGIFNQKIRDGWQVEEADDWLRYGNPWEKSRPEFMLPVHFYGKVEHTNTGTKWIDTQVVLALPYDTPVPGYMNNTVNTMRLWSARAPNDFNLRDFNVGDYIQAVLDRNLAENISRVLYPNDNFFEGKELRLKQEYFVVAATLQDIIRRFKASKFGSTRGAGTVFDAFPDQVAIQLNDTHPALAIPELMRIFVDIEKLPWSKAWELTQKTFAYTNHTVLPEALERWPVDLVEKLLPRHLEIIYEINQKHLDRIVALFPKDVDRLRRMSLIEEEGSKRINMAHLCIVGSHAVNGVAKIHSDIVKTKVFKDFSELEPDKFQNKTNGITPRRWLLLCNPGLAELIAEKIGEDYVKDLSQLTKLHSFLGDDVFLRELAKVKQENKLKFSQFLETEYKVKINPSSMFDVQVKRIHEYKRQLLNCLHVITMYNRIKKDPKKLFVPRTVIIGGKAAPGYHMAKMIIKLITSVADVVNNDPMVGSKLKVIFLENYRVSLAEKVIPATDLSEQISTAGTEASGTGNMKFMLNGALTIGTMDGANVEMAEEAGEENLFIFGMRIDDVAALDKKGYEAKEYYEALPELKLVIDQIDNGFFSPKQPDLFKDIINMLFYHDRFKVFADYEAYVKCQDKVSQLYMNPKAWNTMVLKNIAASGKFSSDRTIKEYAQNIWNVEPSDLKISLSNESNKVNGN

- binding: binds
B3: TBCA (protein, UniProt O75347 1-108)
chain: MADPRVRQIKIKTGVVKRLVKEKVMYEKEAKQQEEKIEKMRAEDGENYDIKKQAEILQESRMMIPDCQRRLEAAYLDLQRILENEKDLEEAEEYKEARLVLDSVKLEA

- binding: binds
B4: ERP44 (protein, UniProt Q9BS26 30-406)
chain: EITSLDTENIDEILNNADVALVNFYADWCRFSQMLHPIFEEASDVIKEEFPNENQVVFARVDCDQHSDIAQRYRISKYPTLKLFRNGMMMKREYRGQRSVKALADYIRQQKSDPIQEIRDLAEITTLDRSKRNIIGYFEQKDSDNYRVFERVANILHDDCAFLSAFGDVSKPERYSGDNIIYKPPGHSAPDMVYLGAMTNFDVTYNWIQDKCVPLVREITFENGEELTEEGLPFLILFHMKEDTESLEIFQNEVARQLISEKGTINFLHADCDKFRHPLLHIQKTPADCPVIAIDSFRHMYVFGDFKDVLIPGKLKQFVFDLHSGKLHREFHHGPDPTDTAPGEQAQDVASSPPESSFQKLAPSEYRYTLLRDRDEL

- binding: binds
B5: phosphofructokinase (protein, UniProt P17858 1-780)
chain: MAAVDLEKLRASGAGKAIGVLTSGGDAQGMNAAVRAVTRMGIYVGAKVFLIYEGYEGLVEGGENIKQANWLSVSNIIQLGGTIIGSARCKAFTTREGRRAAAYNLVQHGITNLCVIGGDGSLTGANIFRSEWGSLLEELVAEGKISETTARTYSHLNIAGLVGSIDNDFCGTDMTIGTDSALHRIMEVIDAITTTAQSHQRTFVLEVMGRHCGYLALVSALASGADWLFIPEAPPEDGWENFMCERLGETRSRGSRLNIIIIAEGAIDRNGKPISSSYVKDLVVQRLGFDTRVTVLGHVQRGGTPSAFDRILSSKMGMEAVMALLEATPDTPACVVTLSGNQSVRLPLMECVQMTKEVQKAMDDKRFDEATQLRGGSFENNWNIYKLLAHQKPPKEKSNFSLAILNVGAPAAGMNAAVRSAVRTGISHGHTVYVVHDGFEGLAKGQVQEVGWHDVAGWLGRGGSMLGTKRTLPKGQLESIVENIRIYGIHALLVVGGFEAYEGVLQLVEARGRYEELCIVMCVIPATISNNVPGTDFSLGSDTAVNAAMESCDRIKQSASGTKRRVFIVETMGGYCGYLATVTGIAVGADAAYVFEDPFNIHDLKVNVEHMTEKMKTDIQRGLVLRNEKCHDYYTTEFLYNLYSSEGKGVFDCRTNVLGHLQQGGAPTPFDRNYGTKLGVKAMLWLSEKLREVYRKGRVFANAPDSACVIGLKKKAVAFSPVTELKKDTDFEHRMPREQWWLSLRLMLKMLAQYRISMAAYVSGELEHVTRRTLSMDKGF

- binding: binds
B6: PGD (protein, UniProt P52209 1-483)
chain: MAQADIALIGLAVMGQNLILNMNDHGFVVCAFNRTVSKVDDFLANEAKGTKVVGAQSLKEMVSKLKKPRRIILLVKAGQAVDDFIEKLVPLLDTGDIIIDGGNSEYRDTTRRCRDLKAKGILFVGSGVSGGEEGARYGPSLMPGGNKEAWPHIKTIFQGIAAKVGTGEPCCDWVGDEGAGHFVKMVHNGIEYGDMQLICEAYHLMKDVLGMAQDEMAQAFEDWNKTELDSFLIEITANILKFQDTDGKHLLPKIRDSAGQKGTGKWTAISALEYGVPVTLIGEAVFARCLSSLKDERIQASKKLKGPQKFQFDGDKKSFLEDIRKALYASKIISYAQGFMLLRQAATEFGWTLNYGGIALMWRGGCIIRSVFLGKIKDAFDRNPELQNLLLDDFFKSAVENCQDSWRRAVSTGVQAGIPMPCFTTALSFYDGYRHEMLPASLIQAQRDYFGAHTYELLAKPGQFIHTNWTGHGGTVSSSSYNA

- binding: binds
B7: HSD17B4 (protein, UniProt P51659 1-736)
chain: MGSPLRFDGRVVLVTGAGAGLGRAYALAFAERGALVVVNDLGGDFKGVGKGSLAADKVVEEIRRRGGKAVANYDSVEEGEKVVKTALDAFGRIDVVVNNAGILRDRSFARISDEDWDIIHRVHLRGSFQVTRAAWEHMKKQKYGRIIMTSSASGIYGNFGQANYSAAKLGLLGLANSLAIEGRKSNIHCNTIAPNAGSRMTQTVMPEDLVEALKPEYVAPLVLWLCHESCEENGGLFEVGAGWIGKLRWERTLGAIVRQKNHPMTPEAVKANWKKICDFENASKPQSIQESTGSIIEVLSKIDSEGGVSANHTSRATSTATSGFAGAIGQKLPPFSYAYTELEAIMYALGVGASIKDPKDLKFIYEGSSDFSCLPTFGVIIGQKSMMGGGLAEIPGLSINFAKVLHGEQYLELYKPLPRAGKLKCEAVVADVLDKGSGVVIIMDVYSYSEKELICHNQFSLFLVGSGGFGGKRTSDKVKVAVAIPNRPPDAVLTDTTSLNQAALYRLSGDWNPLHIDPNFASLAGFDKPILHGLCTFGFSARRVLQQFADNDVSRFKAIKARFAKPVYPGQTLQTEMWKEGNRIHFQTKVQETGDIVISNAYVDLAPTSGTSAKTPSEGGKLQSTFVFEEIGRRLKDIGPEVVKKVNAVFEWHITKGGNIGAKWTIDLKSGSGKVYQGPAKGAADTTIILSDEDFMEVVLGKLDPQKAFFSGRLKARGNIMLSQKLQMILKDYAKL

From paper PMC4761381
